From patent US7625870B2CJSC, priority 2004, dated 2009)
* marks the point of attachment. Cbz = O=C(OCc1ccccc1)*; OBn = c1ccc(CO*)cc1

Experiment: general procedure: solution-phase peptide synthesis; N,N'-dicyclohexylcarbodiimide / N-oxybenzotriazol

Substance | step yield (coupling step) [%] | step yield (late stage modification step) [%]
Cbz-AE(OBn)D(OBn)L-OBn | 55 | –
H-Ala-Glu-Asp-Leu (SEQ ID NO:1)-OH | – | 79
